Results taken from the supplement of paper PMC6078165.

Tested on: MDAMB231
Assay: relative JC-1 red fluorescence (viability) vs pre-drug, coculture with fibroblast (fraction); higher = more viable cancer cells
Conditions: 100 µM
Method: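 JC-1 labelled TNBC cells cocultured 1:1 (1,500 cells each) with CellTrace Violet stained primary or stromal fibroblasts in 384-well plates in FluoroBrite medium, treated with one of 42 anticancer drugs at 0.1, 1, 10 or 100 uM. JC-1 red fluorescence (mitochondrial integrity in cancer cells only) was read by plate reader every 8 h for 72 h. Values are normalised to each well's pre-drug value. The stock of one drug was tenfold lower, so its dose labels may be too high.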

C#Cc1cccc(Nc2ncnc3cc(OCCOC)c(OCCOC)cc23)c1 [Erlotinib]
relative JC-1 red fluorescence
Conditions | 8 h | 16 h | 24 h | 32 h | 40 h | 48 h | 56 h | 64 h | 72 h
coculture fibroblast: C12385 | 0.84 ± 0.04 | 0.887 ± 0.075 | 0.844 ± 0.046 | 0.893 ± 0.066 | 0.773 ± 0.062 | 0.344 ± 0.079 | 0.314 ± 0.07 | 0.339 ± 0.065 | 0.364 ± 0.048
coculture fibroblast: H6013 | 0.938 ± 0.083 | 0.879 ± 0.17 | 0.911 ± 0.11 | 0.79965 ± 0.00012 | 0.81 ± 0.029 | 0.929 ± 0.046 | 0.875 ± 0.15 | 0.907 ± 0.11 | 0.836 ± 0.18
coculture fibroblast: H6019 | 0.841 ± 0.011 | 0.853 ± 0.033 | 0.816 ± 0.042 | 0.867 ± 0.046 | 0.872 ± 0.06 | 0.893 ± 0.075 | 0.873 ± 0.076 | 0.886 ± 0.099 | 0.884 ± 0.096
coculture fibroblast: H6076 | 0.9229 ± 0.0039 | 0.904 ± 0.017 | 0.908 ± 0.021 | 0.911 ± 0.02 | 0.899 ± 0.026 | 0.887 ± 0.017 | 0.896 ± 0.017 | 0.889 ± 0.003 | 0.894 ± 0.011
coculture fibroblast: H6231 | 0.9522 ± 0.0046 | 0.931 ± 0.019 | 0.905 ± 0.014 | 0.893 ± 0.022 | 0.867 ± 0.035 | 0.846 ± 0.045 | 0.841 ± 0.037 | 0.822 ± 0.041 | 0.801 ± 0.037
coculture fibroblast: HADF | 0.852 ± 0.17 | 0.951 ± 0.067 | 0.869 ± 0.17 | 0.881 ± 0.15 | 0.849 ± 0.17 | 0.828 ± 0.13 | 0.89 ± 0.1 | 0.889 ± 0.13 | 0.847 ± 0.11
coculture fibroblast: HCFa | 0.9882 ± 0.0069 | 0.854 ± 0.16 | 0.894 ± 0.1 | 0.932 ± 0.028 | 0.931 ± 0.013 | 0.957 ± 0.04 | 0.966 ± 0.028 | 0.942 ± 0.021 | 0.905 ± 0.023
coculture fibroblast: HCPF | 0.9385 ± 0.0073 | 0.905 ± 0.014 | 0.903 ± 0.032 | 0.901 ± 0.029 | 0.873 ± 0.048 | 0.851 ± 0.051 | 0.842 ± 0.051 | 0.818 ± 0.05 | 0.809 ± 0.054
coculture fibroblast: HHSteC | 0.854 ± 0.18 | 0.872 ± 0.17 | 0.928 ± 0.044 | 0.9392 ± 0.0087 | 0.834 ± 0.17 | 0.918 ± 0.035 | 0.908 ± 0.018 | 0.877 ± 0.072 | 0.871 ± 0.048
coculture fibroblast: HMF | 0.873 ± 0.032 | 0.912 ± 0.032 | 0.817 ± 0.12 | 0.795 ± 0.14 | 0.943 ± 0.07 | 0.933 ± 0.058 | 0.933 ± 0.038 | 0.919 ± 0.019 | 0.91 ± 0.02
coculture fibroblast: HPFa | 0.9937 ± 0.00073 | 0.837 ± 0.13 | 0.947 ± 0.064 | 0.892 ± 0.13 | 0.718 ± 0.013 | 0.891 ± 0.12 | 0.853 ± 0.15 | 0.968 ± 0.028 | 0.955 ± 0.024
coculture fibroblast: HUF | 0.898 ± 0.023 | 0.866 ± 0.022 | 0.903 ± 0.018 | 0.864 ± 0.035 | 0.837 ± 0.019 | 0.84 ± 0.03 | 0.803 ± 0.029 | 0.806 ± 0.019 | 0.792 ± 0.028
coculture fibroblast: Hs5 | 0.919 ± 0.013 | 0.895 ± 0.011 | 0.8929 ± 0.006 | 0.878 ± 0.013 | 0.86 ± 0.0063 | 0.832 ± 0.02 | 0.822 ± 0.015 | 0.805 ± 0.014 | 0.7968 ± 0.005
coculture fibroblast: Hs27A | 0.932 ± 0.058 | 0.915 ± 0.079 | 0.858 ± 0.14 | 0.866 ± 0.17 | 0.965 ± 0.021 | 0.8979 ± 0.0019 | 0.954 ± 0.024 | 0.959 ± 0.027 | 0.92 ± 0.021
coculture fibroblast: Hs343T | 0.945 ± 0.037 | 0.929 ± 0.028 | 0.937 ± 0.016 | 0.937 ± 0.011 | 0.921 ± 0.02 | 0.891 ± 0.018 | 0.874 ± 0.0029 | 0.84853 ± 0.00049 | 0.837 ± 0.01
coculture fibroblast: WS1 | 0.787 ± 0.024 | 0.794 ± 0.026 | 0.7371 ± 0.0061 | 0.793 ± 0.016 | 0.782 ± 0.01 | 0.78 ± 0.011 | 0.7679 ± 0.0023 | 0.763 ± 0.018 | 0.754 ± 0.035

± gives the standard deviation of the averaged measurements. The reference is the same well before dosing, and untreated signal decays as well.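 Fibroblast labels denote human fibroblasts, mainly primary ones from uterus (C12385, HUF), lung (H6013), bone (Hs27A), adrenal (HADF) and skin (WS1), plus mammary HMF and breast cancer-associated Hs343T. Cancer cells are basal-like or mesenchymal-like triple-negative breast cancer lines. A hit is a response shift exceeding 3x replicate standard deviation. The tissue of the other fibroblasts is not given here.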
